Results are given in words; binding and its absence hold for the method and conditions named. Binding calls can cover weak binding; strength is not graded here.
Legend:
Assay in all cases: fluorescence microscopy-based interaction-trap
[1] = target: TetR-EYFP-ZNF518A^971–1483 KSS (human) (UniProt Q6AHZ1)
[2] = target: TetR-EYFP-ZNF518A^KSS (human) (UniProt Q6AHZ1)
[3] = target: TetR-EYFP-ZNF518B^KSS/NC (human) (UniProt Q9C0D4)
[4] = target: TetR-EYFP-ZNF518B^KSS/C (human) (UniProt Q9C0D4)
[5] = target: TetR-EYFP-ZNF518A^1317–1483 KSS (human) (UniProt Q6AHZ1)

The chains behind the UniProt entries cited, without tags or fusion partners. Where a name states a change or a piece, a line headed by the entry shows the natural chain unless it says otherwise.
UniProt Q6AHZ1: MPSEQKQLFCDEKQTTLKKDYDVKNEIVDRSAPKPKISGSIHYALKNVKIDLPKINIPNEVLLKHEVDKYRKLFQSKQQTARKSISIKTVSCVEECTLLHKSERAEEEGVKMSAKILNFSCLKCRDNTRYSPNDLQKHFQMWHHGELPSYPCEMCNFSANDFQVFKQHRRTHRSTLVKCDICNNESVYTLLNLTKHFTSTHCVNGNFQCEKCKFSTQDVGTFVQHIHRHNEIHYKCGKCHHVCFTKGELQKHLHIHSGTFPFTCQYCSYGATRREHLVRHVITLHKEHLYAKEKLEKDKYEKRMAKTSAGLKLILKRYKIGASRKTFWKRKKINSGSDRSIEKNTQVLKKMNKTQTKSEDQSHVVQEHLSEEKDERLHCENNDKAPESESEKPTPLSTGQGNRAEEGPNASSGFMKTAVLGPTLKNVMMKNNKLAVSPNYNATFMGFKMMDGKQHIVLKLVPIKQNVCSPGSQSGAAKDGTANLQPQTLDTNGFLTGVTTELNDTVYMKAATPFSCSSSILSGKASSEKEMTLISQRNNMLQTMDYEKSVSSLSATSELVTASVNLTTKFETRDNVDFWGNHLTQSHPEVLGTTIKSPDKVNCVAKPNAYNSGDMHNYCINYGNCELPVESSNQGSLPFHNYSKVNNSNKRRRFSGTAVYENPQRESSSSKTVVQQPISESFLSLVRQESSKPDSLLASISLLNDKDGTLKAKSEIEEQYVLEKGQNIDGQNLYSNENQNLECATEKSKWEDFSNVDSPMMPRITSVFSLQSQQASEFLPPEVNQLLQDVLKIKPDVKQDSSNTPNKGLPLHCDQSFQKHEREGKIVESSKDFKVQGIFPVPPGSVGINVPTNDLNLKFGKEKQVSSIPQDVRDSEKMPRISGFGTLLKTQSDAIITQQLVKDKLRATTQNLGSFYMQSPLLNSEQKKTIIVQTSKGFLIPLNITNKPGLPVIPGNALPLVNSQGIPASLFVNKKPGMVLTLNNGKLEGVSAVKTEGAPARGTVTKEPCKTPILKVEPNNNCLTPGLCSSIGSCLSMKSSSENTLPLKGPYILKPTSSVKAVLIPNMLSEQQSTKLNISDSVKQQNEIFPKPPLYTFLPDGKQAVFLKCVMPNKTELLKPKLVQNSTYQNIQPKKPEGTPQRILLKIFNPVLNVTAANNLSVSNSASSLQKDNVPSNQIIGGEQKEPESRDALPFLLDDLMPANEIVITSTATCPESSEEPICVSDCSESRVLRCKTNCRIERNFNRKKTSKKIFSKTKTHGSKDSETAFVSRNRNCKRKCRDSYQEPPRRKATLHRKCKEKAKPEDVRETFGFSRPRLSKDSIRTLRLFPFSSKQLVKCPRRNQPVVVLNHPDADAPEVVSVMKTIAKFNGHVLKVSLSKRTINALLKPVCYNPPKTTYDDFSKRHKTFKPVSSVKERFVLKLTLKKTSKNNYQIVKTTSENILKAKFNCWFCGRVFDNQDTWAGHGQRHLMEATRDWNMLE
UniProt Q9C0D4: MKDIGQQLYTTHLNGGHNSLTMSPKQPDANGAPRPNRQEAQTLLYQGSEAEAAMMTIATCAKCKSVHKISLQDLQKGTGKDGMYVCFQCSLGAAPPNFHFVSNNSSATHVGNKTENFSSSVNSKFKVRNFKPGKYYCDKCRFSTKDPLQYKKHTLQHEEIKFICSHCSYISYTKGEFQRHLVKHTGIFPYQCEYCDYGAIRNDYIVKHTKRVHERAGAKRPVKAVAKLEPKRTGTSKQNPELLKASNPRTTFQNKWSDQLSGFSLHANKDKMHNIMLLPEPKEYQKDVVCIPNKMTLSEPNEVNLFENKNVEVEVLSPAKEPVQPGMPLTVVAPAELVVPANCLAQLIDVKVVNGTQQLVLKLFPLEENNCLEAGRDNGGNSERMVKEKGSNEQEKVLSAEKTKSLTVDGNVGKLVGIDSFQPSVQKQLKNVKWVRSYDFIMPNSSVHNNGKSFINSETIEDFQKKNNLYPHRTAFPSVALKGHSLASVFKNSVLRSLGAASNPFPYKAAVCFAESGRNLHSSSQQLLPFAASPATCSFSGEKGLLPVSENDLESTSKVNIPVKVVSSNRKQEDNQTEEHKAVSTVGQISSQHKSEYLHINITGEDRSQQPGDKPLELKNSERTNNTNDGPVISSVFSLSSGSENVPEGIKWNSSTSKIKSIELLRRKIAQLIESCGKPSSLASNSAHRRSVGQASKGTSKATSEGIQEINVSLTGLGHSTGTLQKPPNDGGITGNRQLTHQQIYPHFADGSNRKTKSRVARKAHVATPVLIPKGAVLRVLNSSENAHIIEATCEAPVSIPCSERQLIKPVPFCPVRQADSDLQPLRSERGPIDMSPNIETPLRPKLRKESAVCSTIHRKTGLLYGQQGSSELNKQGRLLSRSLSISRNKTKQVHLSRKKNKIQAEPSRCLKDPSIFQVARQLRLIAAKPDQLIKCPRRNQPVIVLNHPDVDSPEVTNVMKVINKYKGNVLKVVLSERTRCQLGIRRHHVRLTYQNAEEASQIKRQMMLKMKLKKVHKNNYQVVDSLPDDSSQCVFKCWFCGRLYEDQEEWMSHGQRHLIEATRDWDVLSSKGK
UniProt Q96KQ7: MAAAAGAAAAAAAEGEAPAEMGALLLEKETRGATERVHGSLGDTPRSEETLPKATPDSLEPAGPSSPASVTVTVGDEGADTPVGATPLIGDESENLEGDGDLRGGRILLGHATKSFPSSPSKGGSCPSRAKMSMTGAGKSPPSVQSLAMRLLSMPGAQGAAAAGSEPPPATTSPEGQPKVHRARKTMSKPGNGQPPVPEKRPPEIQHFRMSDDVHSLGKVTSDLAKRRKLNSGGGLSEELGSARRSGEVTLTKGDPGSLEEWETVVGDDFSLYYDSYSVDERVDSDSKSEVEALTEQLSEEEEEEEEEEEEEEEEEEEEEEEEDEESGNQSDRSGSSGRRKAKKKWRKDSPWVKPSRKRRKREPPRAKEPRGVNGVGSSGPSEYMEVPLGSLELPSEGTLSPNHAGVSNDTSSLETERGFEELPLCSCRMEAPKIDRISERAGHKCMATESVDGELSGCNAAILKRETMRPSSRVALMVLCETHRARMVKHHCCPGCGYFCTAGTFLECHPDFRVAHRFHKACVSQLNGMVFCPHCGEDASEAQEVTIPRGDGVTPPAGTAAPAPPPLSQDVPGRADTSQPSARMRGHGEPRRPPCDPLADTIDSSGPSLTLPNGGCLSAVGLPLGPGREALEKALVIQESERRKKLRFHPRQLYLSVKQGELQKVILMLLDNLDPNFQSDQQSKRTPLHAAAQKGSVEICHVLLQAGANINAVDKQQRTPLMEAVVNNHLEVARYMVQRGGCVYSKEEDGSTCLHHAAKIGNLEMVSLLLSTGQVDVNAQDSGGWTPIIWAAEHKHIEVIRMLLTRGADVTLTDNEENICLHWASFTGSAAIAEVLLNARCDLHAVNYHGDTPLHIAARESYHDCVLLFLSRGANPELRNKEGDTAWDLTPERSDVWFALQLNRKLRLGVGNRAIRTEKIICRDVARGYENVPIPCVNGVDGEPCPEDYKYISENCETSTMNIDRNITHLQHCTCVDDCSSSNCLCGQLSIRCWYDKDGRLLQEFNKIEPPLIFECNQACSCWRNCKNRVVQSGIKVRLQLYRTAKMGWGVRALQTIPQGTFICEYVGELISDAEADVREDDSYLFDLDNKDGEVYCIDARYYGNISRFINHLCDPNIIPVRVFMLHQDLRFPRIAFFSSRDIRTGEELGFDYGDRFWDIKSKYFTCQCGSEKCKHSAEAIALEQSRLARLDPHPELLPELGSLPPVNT

Measured: binding

Halo-G9a (from UniProt Q96KQ7 1-1210) (enzyme)
binds: all assays above

From article doi:10.1101/2022.09.15.508097
